Results of single-concentration screens

Sequences of proteins named here, by UniProt entry; tags and fusion partners are left off.
UniProt I6X8D2, whole entry: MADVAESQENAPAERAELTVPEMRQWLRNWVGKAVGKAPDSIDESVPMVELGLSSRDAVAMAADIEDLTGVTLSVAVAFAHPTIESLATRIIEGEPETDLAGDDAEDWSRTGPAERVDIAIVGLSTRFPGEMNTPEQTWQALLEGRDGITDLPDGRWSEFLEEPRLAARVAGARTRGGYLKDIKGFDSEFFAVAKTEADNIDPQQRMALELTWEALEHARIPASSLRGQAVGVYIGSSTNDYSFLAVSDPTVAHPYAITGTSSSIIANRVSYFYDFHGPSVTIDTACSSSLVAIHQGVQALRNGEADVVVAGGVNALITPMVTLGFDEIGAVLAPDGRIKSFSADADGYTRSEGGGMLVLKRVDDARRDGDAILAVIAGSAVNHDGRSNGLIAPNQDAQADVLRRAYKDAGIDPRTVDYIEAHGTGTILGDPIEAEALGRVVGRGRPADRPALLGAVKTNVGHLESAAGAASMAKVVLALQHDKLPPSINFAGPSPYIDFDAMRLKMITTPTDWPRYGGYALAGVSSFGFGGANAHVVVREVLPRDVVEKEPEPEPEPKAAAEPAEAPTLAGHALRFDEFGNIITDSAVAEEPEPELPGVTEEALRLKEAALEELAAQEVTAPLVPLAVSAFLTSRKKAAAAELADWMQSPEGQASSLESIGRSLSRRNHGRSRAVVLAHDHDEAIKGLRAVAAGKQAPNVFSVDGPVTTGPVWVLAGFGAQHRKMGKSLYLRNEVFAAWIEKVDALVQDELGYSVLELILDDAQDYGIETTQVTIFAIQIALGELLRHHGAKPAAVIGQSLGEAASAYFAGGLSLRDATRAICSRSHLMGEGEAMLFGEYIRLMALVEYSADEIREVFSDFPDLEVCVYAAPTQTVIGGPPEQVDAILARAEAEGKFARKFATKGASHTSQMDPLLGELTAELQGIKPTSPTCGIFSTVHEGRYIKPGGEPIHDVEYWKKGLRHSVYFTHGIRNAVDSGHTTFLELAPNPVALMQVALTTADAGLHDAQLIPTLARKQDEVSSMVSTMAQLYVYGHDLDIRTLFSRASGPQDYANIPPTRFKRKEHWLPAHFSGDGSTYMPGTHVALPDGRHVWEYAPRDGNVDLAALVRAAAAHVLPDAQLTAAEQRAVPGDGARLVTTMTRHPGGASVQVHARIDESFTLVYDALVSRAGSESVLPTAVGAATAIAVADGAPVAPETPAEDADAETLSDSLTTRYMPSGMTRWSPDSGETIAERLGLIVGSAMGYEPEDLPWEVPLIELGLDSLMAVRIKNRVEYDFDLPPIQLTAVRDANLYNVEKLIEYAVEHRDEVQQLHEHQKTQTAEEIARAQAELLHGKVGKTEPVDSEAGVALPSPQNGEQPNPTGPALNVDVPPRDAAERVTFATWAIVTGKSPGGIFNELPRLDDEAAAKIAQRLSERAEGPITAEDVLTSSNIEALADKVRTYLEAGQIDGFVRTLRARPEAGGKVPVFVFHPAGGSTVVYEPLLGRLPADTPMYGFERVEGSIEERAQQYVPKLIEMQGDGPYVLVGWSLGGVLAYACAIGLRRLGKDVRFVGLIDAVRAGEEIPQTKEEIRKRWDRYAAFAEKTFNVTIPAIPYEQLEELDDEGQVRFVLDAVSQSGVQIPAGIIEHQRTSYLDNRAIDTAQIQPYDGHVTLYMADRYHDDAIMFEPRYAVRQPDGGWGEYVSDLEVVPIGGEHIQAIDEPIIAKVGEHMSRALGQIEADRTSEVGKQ

The values are deposited in ChEMBL (CHEMBL3988442, “University of Dundee, Small-Polar-MMV Screening Library” (2021)).

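Polyketide synthase Pks13, Mycobacterium tuberculosis (UniProt I6X8D2). Enzyme assay of the thioesterase domain of polyketide synthase 13; the read-out is not stated. Compounds at 30 µM. The record gives no direction; the compounds picked for IC50 retests had high values, so higher reads as stronger inhibition. Size under these conditions: about 67,000 compounds, about 300 of them at 50% or above in at least one test.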

Values are the deposited “Percent Effect”, in %. The record does not define 0% and 100%; most values in the screen are far below 50% and negative numbers occur (in some assays of this library far below -100). Compounds were drawn at random from those tested, without regard to their results.

COc1cc2c(cc1CNC(=O)Cc1cc(C)on1)OC(C)C2 (stereo unspecified) gave -6.916%. CC(C)=CCC1(CO)CCCN(Cc2cnc(N3CCOCC3)nc2)C1 (stereo unspecified) read -32.35%. Cc1cc(N)cc(C2CN(Cc3cc[nH]n3)CCO2)n1 (stereo unspecified) gave -11.33%. With CO[C@H]1CN(Cc2nc3ccccc3n2C)CC[C@@]12CCCO2 the screen gave 15.02%.

COc1ccc(C(O)CNC(=O)NCc2c(C)cc(C)[nH]c2=O)cc1 (stereo unspecified) read -9.768%. With CNCc1ccc([C@@H]2CN(C(C)=O)C[C@H]2C(N)=O)cc1 the screen gave 3.648%. Result for NCC1CCC(c2c(C(=O)NCCO)sc3ccccc23)CC1 (stereo unspecified) was -26.98%. With O=C(c1ccc[nH]1)N1CCC2(CC1)C(=O)Nc1ccccc12 the screen gave -3.59%.

With COCCc1noc(-c2ccc(=O)[nH]c2)n1 the screen gave -27.87%. Cc1noc(C)c1CC(=O)NCC(CC(C)C)N1CCOCC1 (stereo unspecified) gave -14.28%. O=C(CN1CCOC(CNc2cccnn2)C1)NCc1cccs1 (stereo unspecified) read -13.87%. COC(=O)CCCN(C)C(c1cccnc1)c1ccc(F)cc1F (stereo unspecified) gave -1.633%.

With CCCc1nc(C(=O)N(C)Cc2cnn(-c3cccc(OC)c3)c2)cs1 the screen gave -57.1%. With Cc1ccc(CN2C[C@@H]3C[C@H](C(=O)NCC4CC4)N(C)[C@@H]3C2)o1 the screen gave -37.72%. CC(C)c1cc(C(=O)N2CCc3nc(C4CCCN4)ncc3C2)cs1 (stereo unspecified) read -7.527%. CCc1nccn1CC(=O)Nc1cccc(C(=O)OC)c1 gave 1.632%.

OCCn1nccc1C1CCN(Cc2nc(C3CC3)no2)CC1 read 12.09%. CC(C)N(CC(N)=O)CC(=O)NCCc1c(F)cccc1F read -24.75%. COc1cc(C(=O)Nc2nc(C)no2)ccc1OC1CCCC1 read -9.854%. With CS(=O)(=O)NCc1ncn2c1CN(Cc1cccs1)CCC2 the screen gave -9.816%.

With CC(C)Oc1ccc(NCc2ccc([S+](C)[O-])cc2)c(F)c1 (stereo unspecified) the screen gave 15.57%. With CC(C)c1noc(CCC(=O)N2CCCC(n3ccnc3)C2)n1 (stereo unspecified) the screen gave -27.26%. With OC(COCc1ccccc1)CN1CCC(Cn2cccn2)CC1 (stereo unspecified) the screen gave -1.137%. CN1CCC(CCc2ccnc(NC(=O)c3ccccn3)c2)CC1 gave -11.04%.

Result for O=c1[nH]ccn1CCCN1CC=C(c2cnn(-c3ccccc3)c2)CC1 was -32.59%. COc1ccc(CC(=O)NCCn2nc3ccccn3c2=O)cc1 read -11.23%. For CCN1CCCC1Cn1ccc2c(OC)c(OC)ccc2c1=O (stereo unspecified) the result was -16.9%. CC(C)(O)c1cn(C2CCN(C(=O)CCC3CCCC3)CC2)nn1 read 21.47%.

CNC(=O)CN1CCOC(c2cccc(N)n2)C1 (stereo unspecified) gave 1.218%. For Cc1cnn(CC2CN(Cc3cccnc3)CCO2)c1 (stereo unspecified) the result was -11.32%. With Cc1nc[nH]c1CN1C[C@@H]2CC[C@H](C1)N(C(=O)CCc1cccnc1)C2 the screen gave -1.921%. With COCc1nc(C2CCN(Cc3ncc[nH]3)CC2)no1 the screen gave -6.165%.

Result for COCCNC(=O)Cn1nc(C(C)C)c2cnn(C(C)(C)C)c2c1=O was -9.959%. Result for C/C(Cl)=C/CNC(=O)[C@H]1CC[C@]2(CC1)CN(C)C(=O)c1ccccc1O2 was -1.955%. With COc1ncnc(N)c1CNCCOc1ccccc1Cl the screen gave -12.44%. With CC(=O)N1CCN(C(=O)NC(C)Cn2ccnc2)CC1 (stereo unspecified) the screen gave -51.88%.

Result for CCC(C)(N)c1nc(C(C)C)cc(=O)[nH]1 (stereo unspecified) was -28.46%. CN(CCn1cccn1)C1CCCN(Cc2noc(C3CC3)n2)C1 (stereo unspecified) read 15.45%. For CN(CCc1cnn(C)c1)C(=O)Cn1c(=O)[nH]c2ccccc21 the result was -1.689%.

The last 4 entries again:

Compound	percent effect
CC(=O)N1CCN(C(=O)NC(C)Cn2ccnc2)CC1 (stereo unspecified)	-51.88
CCC(C)(N)c1nc(C(C)C)cc(=O)[nH]1 (stereo unspecified)	-28.46
CN(CCn1cccn1)C1CCCN(Cc2noc(C3CC3)n2)C1 (stereo unspecified)	15.45
CN(CCc1cnn(C)c1)C(=O)Cn1c(=O)[nH]c2ccccc21	-1.689